# Measurements taken from PubChem BioAssay (EPA / NIEHS).
# Protein sequences, listed by entry. Tags and fused reporters are not part of them. Lines headed by an entry give the natural chain unless they say otherwise; changes in a name come on top.
# UniProt P03372, whole entry, looked up: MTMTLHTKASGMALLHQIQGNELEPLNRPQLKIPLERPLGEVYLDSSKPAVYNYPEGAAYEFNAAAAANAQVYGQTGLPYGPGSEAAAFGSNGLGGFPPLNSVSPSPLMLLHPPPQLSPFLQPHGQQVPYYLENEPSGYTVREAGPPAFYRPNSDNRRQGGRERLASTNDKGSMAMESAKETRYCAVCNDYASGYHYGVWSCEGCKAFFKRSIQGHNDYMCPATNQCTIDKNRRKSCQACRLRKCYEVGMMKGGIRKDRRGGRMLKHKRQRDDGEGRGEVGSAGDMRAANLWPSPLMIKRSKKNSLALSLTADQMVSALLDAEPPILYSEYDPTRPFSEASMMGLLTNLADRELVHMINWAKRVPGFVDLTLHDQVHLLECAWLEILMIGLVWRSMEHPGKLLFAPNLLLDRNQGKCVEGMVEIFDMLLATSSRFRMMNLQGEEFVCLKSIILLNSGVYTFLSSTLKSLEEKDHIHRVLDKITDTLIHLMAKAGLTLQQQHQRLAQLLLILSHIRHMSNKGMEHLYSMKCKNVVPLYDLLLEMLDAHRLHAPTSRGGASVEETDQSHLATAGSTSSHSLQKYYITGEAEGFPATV
# UniProt P37231: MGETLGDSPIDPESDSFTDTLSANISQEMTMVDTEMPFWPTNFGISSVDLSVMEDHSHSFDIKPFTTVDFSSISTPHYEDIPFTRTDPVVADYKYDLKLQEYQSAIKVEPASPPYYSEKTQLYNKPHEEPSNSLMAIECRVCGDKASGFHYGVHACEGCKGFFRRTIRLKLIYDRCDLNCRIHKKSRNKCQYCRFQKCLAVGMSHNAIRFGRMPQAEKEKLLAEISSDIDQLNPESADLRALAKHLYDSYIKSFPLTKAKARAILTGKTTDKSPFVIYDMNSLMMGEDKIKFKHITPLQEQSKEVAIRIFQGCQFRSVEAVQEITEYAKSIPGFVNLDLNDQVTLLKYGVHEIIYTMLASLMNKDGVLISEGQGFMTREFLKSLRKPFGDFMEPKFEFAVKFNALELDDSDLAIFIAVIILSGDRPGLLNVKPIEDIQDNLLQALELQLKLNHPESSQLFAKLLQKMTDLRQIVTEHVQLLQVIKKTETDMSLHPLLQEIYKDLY
# UniProt P16257, whole entry, looked up: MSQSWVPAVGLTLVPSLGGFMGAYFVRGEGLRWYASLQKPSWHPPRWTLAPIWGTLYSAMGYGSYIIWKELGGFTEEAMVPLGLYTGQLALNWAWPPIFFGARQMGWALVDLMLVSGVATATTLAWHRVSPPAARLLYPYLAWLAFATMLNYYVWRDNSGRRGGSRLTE
# UniProt O97775: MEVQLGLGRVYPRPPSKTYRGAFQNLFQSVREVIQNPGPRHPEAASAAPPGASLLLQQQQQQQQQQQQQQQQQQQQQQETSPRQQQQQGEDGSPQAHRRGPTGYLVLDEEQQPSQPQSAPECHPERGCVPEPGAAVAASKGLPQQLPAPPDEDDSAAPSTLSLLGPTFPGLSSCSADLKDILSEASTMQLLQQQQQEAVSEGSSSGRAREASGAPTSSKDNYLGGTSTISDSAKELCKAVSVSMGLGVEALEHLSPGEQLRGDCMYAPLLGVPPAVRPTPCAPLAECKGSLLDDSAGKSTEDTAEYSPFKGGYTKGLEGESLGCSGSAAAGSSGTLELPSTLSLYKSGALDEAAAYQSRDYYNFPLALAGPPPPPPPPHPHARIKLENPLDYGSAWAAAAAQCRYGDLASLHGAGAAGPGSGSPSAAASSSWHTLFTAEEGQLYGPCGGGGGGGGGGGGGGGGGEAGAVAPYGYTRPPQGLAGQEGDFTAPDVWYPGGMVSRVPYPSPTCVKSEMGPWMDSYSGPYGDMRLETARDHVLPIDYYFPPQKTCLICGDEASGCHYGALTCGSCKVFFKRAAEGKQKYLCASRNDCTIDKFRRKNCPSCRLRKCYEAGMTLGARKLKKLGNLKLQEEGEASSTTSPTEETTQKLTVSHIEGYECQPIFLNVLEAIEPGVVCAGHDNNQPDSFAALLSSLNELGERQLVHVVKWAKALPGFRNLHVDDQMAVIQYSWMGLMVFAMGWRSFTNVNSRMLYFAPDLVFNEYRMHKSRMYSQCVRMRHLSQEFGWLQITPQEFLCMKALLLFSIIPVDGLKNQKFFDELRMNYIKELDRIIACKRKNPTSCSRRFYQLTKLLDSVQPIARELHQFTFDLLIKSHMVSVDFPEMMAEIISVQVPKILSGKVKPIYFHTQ
# UniProt O75469: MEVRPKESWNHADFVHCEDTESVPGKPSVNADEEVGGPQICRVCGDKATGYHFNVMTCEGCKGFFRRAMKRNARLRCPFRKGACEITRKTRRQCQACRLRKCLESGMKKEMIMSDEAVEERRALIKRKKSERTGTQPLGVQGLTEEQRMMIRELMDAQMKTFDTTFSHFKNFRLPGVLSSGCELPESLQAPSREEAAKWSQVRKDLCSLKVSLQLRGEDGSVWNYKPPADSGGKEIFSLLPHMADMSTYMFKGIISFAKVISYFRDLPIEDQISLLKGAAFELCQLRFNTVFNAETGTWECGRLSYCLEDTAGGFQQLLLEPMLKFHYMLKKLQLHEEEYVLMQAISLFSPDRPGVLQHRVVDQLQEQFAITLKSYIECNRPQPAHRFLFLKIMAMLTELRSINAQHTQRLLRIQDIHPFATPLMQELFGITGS
# UniProt P10827: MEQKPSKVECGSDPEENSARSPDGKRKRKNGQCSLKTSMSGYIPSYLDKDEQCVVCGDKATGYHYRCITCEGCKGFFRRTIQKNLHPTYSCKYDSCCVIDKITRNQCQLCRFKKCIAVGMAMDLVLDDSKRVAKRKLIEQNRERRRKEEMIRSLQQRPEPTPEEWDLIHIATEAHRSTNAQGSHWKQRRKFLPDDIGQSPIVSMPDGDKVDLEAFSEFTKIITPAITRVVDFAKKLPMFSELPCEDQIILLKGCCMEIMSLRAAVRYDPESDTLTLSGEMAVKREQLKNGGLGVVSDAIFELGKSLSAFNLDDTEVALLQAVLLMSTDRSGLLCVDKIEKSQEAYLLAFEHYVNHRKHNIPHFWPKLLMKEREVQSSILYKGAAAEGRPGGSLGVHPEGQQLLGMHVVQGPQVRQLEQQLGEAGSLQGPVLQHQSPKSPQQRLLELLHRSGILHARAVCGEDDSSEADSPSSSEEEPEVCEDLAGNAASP
# UniProt O70528: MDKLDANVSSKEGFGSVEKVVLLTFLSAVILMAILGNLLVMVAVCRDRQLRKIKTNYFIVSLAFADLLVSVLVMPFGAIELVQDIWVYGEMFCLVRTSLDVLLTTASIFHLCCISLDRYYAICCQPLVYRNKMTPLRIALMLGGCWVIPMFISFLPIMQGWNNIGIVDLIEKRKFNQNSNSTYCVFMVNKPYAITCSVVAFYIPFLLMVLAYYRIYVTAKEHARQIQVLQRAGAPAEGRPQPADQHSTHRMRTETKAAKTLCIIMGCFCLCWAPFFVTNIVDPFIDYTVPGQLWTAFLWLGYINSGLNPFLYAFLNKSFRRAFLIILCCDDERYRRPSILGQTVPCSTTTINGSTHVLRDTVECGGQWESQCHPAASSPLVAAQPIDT
# UniProt Q92731, whole entry, looked up: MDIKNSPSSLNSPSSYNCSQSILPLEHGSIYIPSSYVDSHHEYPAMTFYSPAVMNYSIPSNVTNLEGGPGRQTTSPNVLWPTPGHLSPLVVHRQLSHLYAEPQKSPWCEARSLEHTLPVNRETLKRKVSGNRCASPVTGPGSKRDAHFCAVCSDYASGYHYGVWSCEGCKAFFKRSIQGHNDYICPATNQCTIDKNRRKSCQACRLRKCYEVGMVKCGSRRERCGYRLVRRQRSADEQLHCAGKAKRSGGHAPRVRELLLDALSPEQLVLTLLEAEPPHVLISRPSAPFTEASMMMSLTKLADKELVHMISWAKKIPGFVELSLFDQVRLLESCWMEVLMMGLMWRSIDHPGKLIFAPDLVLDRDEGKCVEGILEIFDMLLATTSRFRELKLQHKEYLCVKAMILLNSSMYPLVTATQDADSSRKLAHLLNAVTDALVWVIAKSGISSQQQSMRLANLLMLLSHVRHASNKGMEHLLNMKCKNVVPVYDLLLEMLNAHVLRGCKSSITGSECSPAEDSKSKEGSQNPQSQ
# UniProt P28827, whole entry, looked up: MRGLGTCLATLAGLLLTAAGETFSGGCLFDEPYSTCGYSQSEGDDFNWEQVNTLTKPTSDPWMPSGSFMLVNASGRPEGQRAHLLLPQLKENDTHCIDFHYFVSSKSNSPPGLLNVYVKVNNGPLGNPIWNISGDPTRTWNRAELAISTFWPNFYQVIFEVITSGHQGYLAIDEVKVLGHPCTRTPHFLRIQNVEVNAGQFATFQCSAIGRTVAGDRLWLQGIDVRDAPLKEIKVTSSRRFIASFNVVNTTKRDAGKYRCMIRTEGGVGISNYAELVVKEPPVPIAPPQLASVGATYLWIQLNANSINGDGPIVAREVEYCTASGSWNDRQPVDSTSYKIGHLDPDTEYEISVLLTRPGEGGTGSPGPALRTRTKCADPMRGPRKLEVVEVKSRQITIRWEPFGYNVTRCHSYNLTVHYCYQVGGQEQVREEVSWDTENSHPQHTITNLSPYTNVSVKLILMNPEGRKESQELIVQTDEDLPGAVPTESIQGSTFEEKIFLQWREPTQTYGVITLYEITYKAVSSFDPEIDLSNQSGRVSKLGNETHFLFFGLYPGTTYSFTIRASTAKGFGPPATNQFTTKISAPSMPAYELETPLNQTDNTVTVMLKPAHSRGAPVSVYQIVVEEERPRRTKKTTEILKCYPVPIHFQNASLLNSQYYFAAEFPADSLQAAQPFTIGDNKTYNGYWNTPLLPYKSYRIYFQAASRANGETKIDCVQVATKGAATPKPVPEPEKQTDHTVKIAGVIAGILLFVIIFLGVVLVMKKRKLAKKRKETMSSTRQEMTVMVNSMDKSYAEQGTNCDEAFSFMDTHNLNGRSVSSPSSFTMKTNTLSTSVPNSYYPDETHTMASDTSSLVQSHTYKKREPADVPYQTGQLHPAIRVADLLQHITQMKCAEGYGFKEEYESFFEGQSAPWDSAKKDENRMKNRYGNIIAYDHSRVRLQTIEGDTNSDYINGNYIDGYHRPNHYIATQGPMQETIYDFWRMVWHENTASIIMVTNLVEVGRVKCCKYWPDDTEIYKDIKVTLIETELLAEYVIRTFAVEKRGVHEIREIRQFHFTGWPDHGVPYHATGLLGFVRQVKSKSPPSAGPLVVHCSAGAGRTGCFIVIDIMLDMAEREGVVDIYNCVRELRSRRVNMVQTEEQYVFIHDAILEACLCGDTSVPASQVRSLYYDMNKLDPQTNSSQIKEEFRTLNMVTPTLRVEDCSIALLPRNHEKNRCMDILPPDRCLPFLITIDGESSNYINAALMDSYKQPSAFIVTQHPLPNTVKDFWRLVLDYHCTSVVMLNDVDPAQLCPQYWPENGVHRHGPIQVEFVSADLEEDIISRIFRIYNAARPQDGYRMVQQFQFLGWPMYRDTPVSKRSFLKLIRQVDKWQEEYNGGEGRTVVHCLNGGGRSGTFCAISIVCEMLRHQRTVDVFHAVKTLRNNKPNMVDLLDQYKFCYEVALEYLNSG
# UniProt P51452: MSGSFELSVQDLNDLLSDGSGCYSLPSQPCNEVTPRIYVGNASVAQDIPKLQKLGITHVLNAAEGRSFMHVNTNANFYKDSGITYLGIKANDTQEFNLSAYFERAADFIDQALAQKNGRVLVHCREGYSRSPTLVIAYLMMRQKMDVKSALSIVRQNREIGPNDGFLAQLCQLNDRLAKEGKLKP
# For some assays here: Shown are results outside the selection of hits, which stands elsewhere. Results filed as inconclusive are left out. Only a part is listed here, and it is no random draw. The source made the active and inactive calls. Rule for the calls, unless noted: active = hit-call score of the fitted dose curve at least 0.9, where 1 is the maximum; inconclusive = response in the unintended direction; inactive = score below 0.9.
# Tests used:
# [1] = target: Estrogen receptor (Homo sapiens) (UniProt P03372); experiment: OT_ER_ERaERa_1440: Odyssey Thera (OT) 24-hour HEK293T Protein-Complementation Assay for Estrogen Receptor-alpha/-alpha Homodimer (AID 2283349);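 note: hits raise fluorescence above DMSO for agonists and antagonists alike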
# How it was run: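 Cells (HEK293T) carrying the fragment-tagged ERα LBD (aa 310-547) pair are treated with chemical for 24 hours. Nuclear and/or cytoplasmic fluorescence is then quantified on a laser scanning cytometer. Activity is scored as signal gain against DMSO.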
# [2] = target: Peroxisome proliferator-activated receptor gamma (Homo sapiens) (UniProt P37231); experiment: OT_PPARg_PPARgSRC1_1440: Odyssey Thera (OT) 24-hour Protein-Complementation Assay for Peroxisome Proliferator-activated Receptor Gamma/ SRC-1 Co-activator (AID 2283388);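 note: nuclear to cytoplasmic ratio of reconstituted Venus YFP fluorescence in fixed imaged cells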
# How it was run: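 Transient HEK293T, YFP fragments 1-158/159-239 (mutant IFP1/IFP2) fused to PPARg/SRC-1; 24 h dosing; fix 4% formaldehyde, Draq5; Opera imaging 488/635 nm; N/C ratio, gain vs DMSO.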
# [3] = read-out: Lipase C (LIPC), LIPC (gene 3990); experiment: LTEA_HepaRG_LIPC: Life Technologies and Expression Analysis (LTEA) Assay for Lipase C (LIPC) using HepaRG (AID 2283514; active = hit-call score of the fitted dose curve at least 0.9, where 1 is the maximum; inactive = score below 0.9); details: actives raise or lower the signal; mRNA level, 48 h
# How it was run: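 HepaRG, 48 h exposure, 8-pt half-log series from 100 uM in 0.5% DMSO, duplicates. Readout: LIPC mRNA by Fluidigm qRT-PCR, housekeeping-normalized (ACTB/GAPDH/POLR2A). Gain or loss fitted bidirectionally against DMSO baseline.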
# [4] = read-out: solute carrier (SLC22A1), SLC22A1 (gene 6580); experiment: LTEA_HepaRG_SLC22A1: Life Technologies and Expression Analysis (LTEA) Assay for solute carrier (SLC22A1) using HepaRG (AID 2283524; active = hit-call score of the fitted dose curve at least 0.9, where 1 is the maximum; inactive = score below 0.9); details: actives raise or lower the signal; mRNA level, 48 h
# How it was run: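 qRT-PCR readout (TaqMan, Fluidigm arrays) of SLC22A1 transcript, normalized to three housekeeping genes; bidirectional curve fit relative to 0.5% DMSO vehicle. Differentiated human HepaRG cells, 48 h chemical exposure, top concentration 100 uM, half-log steps, eight points.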
# [5] = target: rat Peripheral-type Benzodiazepine Receptor (PBR), Tspo (gene 24230) (UniProt P16257); experiment: NVS_MP_rPBR: NovaScreen (NVS) Membrane Protein Assay for rat Peripheral-type Benzodiazepine Receptor (PBR) (AID 2283335)
# How it was run: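 Competitive displacement of specific radioligand from rat kidney membrane PBR, read by filtration and scintillation after 1 h. Compounds first tested at 25 uM in duplicate, then in concentration series; signal loss relative to DMSO.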
# [6] = target: chimpanzee Androgen Receptor (AR), AR (gene 747460) (UniProt O97775); experiment: NVS_NR_cAR: NovaScreen (NVS) Nuclear Receptor Binding Assay for chimpanzee Androgen Receptor (AR) (AID 2283346);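 note: radioligand displacement from AR measured by scintillation counting in a cell-free assay; a loss of bound radioligand signal versus DMSO counts as binding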
# How it was run: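 Radioligand binding to chimpanzee AR expressed in Sf9/Sf21 cells, cell-free, measured 72 h after dosing by lysate-based scintillation counting. Loss of signal vs DMSO; initial duplicate screen at 25 uM, actives retested in concentration series.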
# [7] = target: Nuclear receptor subfamily 1 group I member 2 (Homo sapiens) (UniProt O75469); experiment: NVS_NR_hPXR: NovaScreen (NVS) Nuclear Receptor Binding Assay for human Pregnane X Receptor (PXR) (AID 2283365);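 note: a drop in FRET signal versus DMSO baseline means the compound binds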
# How it was run: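 Binding was measured by time-resolved fluorescence resonance energy transfer after a 2 h exposure of extracted human PXR protein without cells. Compounds were first tested at 25 uM in duplicate, with concentration series for actives; DMSO defined baseline.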
# [8] = target: human Thyroid Receptor Alpha (TRa), THRA (gene 7067) (UniProt P10827); experiment: NVS_NR_hTRa_Antagonist: NovaScreen (NVS) Nuclear Receptor Binding Assay for human Thyroid Receptor Alpha Antagonism (TRa) (AID 2283362);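 note: activity is loss of signal relative to DMSO baseline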
# How it was run: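 Chemicals were first screened in duplicate at 25 uM, then actives were retested in concentration series. Binding to the extracted receptor was measured 1 h after dosing by AlphaLISA chemiluminescence, with decreased signal versus DMSO scored as activity.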
# [9] = target: guinea pig Serotonin, 5-Hydroxytryptamine Receptor 4 (5HT4), HTR4 (gene 100135548) (UniProt O70528); experiment: NVS_GPCR_g5HT4: NovaScreen (NVS) G Protein-Coupled Receptor Assay for guinea pig Serotonin, 5-Hydroxytryptamine Receptor 4 (5HT4) (AID 2283294)
# [10] = target: Estrogen receptor (Homo sapiens) + Estrogen receptor beta (Homo sapiens) (UniProt P03372+Q92731); experiment: OT_ER_ERaERb_1440: Odyssey Thera (OT) 24-hour HEK293T Protein-Complementation Assay for Estrogen Receptor-alpha/-beta Homodimer (AID 2283356);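 note: heteromer of ER alpha and ER beta binding domains; hits raise reporter fluorescence and both agonists and antagonists give an increase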
# How it was run: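 Heterodimerisation of ERα (aa 310-547) and ERβ (aa 263-489) ligand binding domains was tracked as fluorescence gain in stably transfected HEK293T cells following 24 h dosing, normalised to DMSO controls.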
# [11] = target: human Protein Tyrosine Phosphatase Receptor Type M (PTPRM), PTPRM (gene 5797) (UniProt P28827); experiment: NVS_ENZ_hPTPRM: NovaScreen (NVS) Enzymatic Assay for human Protein Tyrosine Phosphatase Receptor Type M (PTPRM) (AID 2283215)
# [12] = CCTE_Shafer_MEA_dev_inter_network_spike_interval_mean: CCTE's Neural Network Formation Assay for Mean Inter-network Spike Interval, Shafer Lab (AID 2284047; active = hit-call score of the fitted dose curve at least 0.9, where 1 is the maximum; inactive = score below 0.9)
# How it was run: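 Mean time between consecutive network-spike peaks, recorded extracellularly (adaptive spike detection) on DIV 5, 7, 9 and 12, summarized as trapezoidal AUC. Rat cortical cultures on MEAs dosed continuously days 0–12, re-dosed at feeds; loss-of-signal fit relative to DMSO.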
# [13] = IUF_NPC2-5_cytotoxicity_72hr: Cytotoxicity Assessment at 72 hours in the Leibniz Research Institute for Environmental Medicine (IUF) Neural Progenitor Cell Migration and Differentiation Assay for Cytotoxicity (NPC2-5) (AID 2284306);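 note: LDH release into supernatant measured by resorufin fluorescence marking membrane damage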
# How it was run: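 hNPC spheres (0.3 mm), PDL/laminin, DMEM/F12 3:1 + 1% N2; cpd from d0, 7 concs + SC, DMSO max 0.1%; half-medium refresh d3. Readout: supernatant LDH via resorufin fluorescence (RFU), 72 h; gain-of-signal fit.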
# [14] = target: human Dual Specificity Protein Phosphatase 3 (DUSP3), DUSP3 (gene 1845) (UniProt P51452); experiment: NVS_ENZ_hDUSP3: NovaScreen (NVS) Enzymatic Assay for human Dual Specificity Protein Phosphatase 3 (DUSP3) (AID 2283152);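 note: phosphatase activity of recombinant human DUSP3 on a fluorogenic substrate without cells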
smiles,measurement,setting,value
Cc1nc(C)nc(N2C[C@@H](C)N(c3ccnc([C@@H](C)O)n3)[C@@H](C)C2)n1,outcome,[1],inactive
same,outcome,[2],inactive
same,outcome,[3],inactive
same,outcome,[4],inactive
CCCCCCCC[N+](C)(CCCCCCCC)CCCCCCCC,AC50,[5],active: 33.3 µM
same,AC50,[6],active: 11.2 µM
CC1(C)CC(N=C=O)CC(C)(CN=C=O)C1 (centres undefined),AC50,[7],active: 25 µM
CCc1ccc(O)cc1,outcome,[8],inactive
CCc1cc(SCc2sc(-c3ccc(C(F)(F)F)cc3)nc2CN2CCN(c3ccc(OC)cc3)CC2)ccc1OCC(=O)O,outcome,[9],inactive
O=C(O)c1ccccc1C(c1ccc(O)cc1)c1ccc(O)cc1,outcome,[10],inactive
CCCC(CCC)C(=O)O,outcome,[11],inactive
same,outcome,[12],inactive
same,AC50,[13],active: 1150 µM
Oc1cc2ccccc2c2ccccc12,AC50,[14],active: 21.2 µM
